Holding throughout (test): whole-cell patch clamp, late INa inhibition
Type in all cases: cell-based
Background: The patch-clamp technique gives a direct electrical read-out from membranes.

The chains behind the UniProt entries cited, without tags or fusion partners.
UniProt Q14524, whole entry M1652R: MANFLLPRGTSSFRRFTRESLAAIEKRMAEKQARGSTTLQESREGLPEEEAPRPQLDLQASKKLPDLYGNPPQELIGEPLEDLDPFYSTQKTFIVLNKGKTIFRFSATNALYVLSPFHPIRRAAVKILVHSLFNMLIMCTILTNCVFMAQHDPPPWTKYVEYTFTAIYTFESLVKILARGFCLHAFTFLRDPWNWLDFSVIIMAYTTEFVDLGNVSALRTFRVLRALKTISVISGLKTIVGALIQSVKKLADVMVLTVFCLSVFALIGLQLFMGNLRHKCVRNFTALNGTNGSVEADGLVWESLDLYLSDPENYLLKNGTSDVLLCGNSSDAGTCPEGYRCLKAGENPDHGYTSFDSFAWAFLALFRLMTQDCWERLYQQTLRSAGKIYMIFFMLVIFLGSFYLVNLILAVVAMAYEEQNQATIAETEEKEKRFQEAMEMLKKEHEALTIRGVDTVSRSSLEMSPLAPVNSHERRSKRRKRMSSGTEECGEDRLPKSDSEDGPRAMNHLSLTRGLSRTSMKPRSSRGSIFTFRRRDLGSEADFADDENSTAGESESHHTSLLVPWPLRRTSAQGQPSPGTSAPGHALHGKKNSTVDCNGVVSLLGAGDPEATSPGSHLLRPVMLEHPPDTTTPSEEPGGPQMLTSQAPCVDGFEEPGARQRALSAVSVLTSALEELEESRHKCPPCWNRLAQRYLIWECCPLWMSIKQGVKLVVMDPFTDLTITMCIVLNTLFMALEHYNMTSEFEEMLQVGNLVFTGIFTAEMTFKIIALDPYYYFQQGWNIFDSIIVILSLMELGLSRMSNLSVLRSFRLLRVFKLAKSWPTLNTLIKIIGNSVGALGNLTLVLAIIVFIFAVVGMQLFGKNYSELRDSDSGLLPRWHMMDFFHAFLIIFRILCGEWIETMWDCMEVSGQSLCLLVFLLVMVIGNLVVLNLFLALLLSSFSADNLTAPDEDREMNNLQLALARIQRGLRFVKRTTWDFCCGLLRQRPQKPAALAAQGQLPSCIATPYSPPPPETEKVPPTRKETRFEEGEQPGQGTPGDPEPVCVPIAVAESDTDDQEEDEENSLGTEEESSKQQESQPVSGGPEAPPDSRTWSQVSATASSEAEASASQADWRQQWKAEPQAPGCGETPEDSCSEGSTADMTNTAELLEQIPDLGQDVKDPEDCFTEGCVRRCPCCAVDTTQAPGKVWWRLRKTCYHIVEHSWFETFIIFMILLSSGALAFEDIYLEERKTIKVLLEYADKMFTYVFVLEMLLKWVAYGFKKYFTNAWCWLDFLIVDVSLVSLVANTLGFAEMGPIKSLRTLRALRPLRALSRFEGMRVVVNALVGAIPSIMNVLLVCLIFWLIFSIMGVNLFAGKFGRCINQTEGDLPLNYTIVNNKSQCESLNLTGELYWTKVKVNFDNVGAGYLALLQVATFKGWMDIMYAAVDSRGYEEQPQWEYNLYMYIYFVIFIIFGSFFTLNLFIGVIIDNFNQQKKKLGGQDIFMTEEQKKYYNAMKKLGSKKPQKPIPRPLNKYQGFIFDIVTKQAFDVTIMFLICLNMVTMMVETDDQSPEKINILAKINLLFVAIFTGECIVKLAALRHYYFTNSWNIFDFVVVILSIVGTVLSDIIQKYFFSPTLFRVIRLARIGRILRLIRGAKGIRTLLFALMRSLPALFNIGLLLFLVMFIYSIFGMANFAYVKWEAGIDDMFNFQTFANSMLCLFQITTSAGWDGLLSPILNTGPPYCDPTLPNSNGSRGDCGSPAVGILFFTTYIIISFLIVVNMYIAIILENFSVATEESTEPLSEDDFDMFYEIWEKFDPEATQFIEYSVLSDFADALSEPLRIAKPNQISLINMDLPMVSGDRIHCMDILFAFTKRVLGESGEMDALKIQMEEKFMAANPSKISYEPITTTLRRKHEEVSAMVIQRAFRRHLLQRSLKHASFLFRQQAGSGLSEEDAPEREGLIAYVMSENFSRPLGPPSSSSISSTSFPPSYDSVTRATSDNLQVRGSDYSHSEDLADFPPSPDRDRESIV
UniProt Q14524, whole entry R1623Q: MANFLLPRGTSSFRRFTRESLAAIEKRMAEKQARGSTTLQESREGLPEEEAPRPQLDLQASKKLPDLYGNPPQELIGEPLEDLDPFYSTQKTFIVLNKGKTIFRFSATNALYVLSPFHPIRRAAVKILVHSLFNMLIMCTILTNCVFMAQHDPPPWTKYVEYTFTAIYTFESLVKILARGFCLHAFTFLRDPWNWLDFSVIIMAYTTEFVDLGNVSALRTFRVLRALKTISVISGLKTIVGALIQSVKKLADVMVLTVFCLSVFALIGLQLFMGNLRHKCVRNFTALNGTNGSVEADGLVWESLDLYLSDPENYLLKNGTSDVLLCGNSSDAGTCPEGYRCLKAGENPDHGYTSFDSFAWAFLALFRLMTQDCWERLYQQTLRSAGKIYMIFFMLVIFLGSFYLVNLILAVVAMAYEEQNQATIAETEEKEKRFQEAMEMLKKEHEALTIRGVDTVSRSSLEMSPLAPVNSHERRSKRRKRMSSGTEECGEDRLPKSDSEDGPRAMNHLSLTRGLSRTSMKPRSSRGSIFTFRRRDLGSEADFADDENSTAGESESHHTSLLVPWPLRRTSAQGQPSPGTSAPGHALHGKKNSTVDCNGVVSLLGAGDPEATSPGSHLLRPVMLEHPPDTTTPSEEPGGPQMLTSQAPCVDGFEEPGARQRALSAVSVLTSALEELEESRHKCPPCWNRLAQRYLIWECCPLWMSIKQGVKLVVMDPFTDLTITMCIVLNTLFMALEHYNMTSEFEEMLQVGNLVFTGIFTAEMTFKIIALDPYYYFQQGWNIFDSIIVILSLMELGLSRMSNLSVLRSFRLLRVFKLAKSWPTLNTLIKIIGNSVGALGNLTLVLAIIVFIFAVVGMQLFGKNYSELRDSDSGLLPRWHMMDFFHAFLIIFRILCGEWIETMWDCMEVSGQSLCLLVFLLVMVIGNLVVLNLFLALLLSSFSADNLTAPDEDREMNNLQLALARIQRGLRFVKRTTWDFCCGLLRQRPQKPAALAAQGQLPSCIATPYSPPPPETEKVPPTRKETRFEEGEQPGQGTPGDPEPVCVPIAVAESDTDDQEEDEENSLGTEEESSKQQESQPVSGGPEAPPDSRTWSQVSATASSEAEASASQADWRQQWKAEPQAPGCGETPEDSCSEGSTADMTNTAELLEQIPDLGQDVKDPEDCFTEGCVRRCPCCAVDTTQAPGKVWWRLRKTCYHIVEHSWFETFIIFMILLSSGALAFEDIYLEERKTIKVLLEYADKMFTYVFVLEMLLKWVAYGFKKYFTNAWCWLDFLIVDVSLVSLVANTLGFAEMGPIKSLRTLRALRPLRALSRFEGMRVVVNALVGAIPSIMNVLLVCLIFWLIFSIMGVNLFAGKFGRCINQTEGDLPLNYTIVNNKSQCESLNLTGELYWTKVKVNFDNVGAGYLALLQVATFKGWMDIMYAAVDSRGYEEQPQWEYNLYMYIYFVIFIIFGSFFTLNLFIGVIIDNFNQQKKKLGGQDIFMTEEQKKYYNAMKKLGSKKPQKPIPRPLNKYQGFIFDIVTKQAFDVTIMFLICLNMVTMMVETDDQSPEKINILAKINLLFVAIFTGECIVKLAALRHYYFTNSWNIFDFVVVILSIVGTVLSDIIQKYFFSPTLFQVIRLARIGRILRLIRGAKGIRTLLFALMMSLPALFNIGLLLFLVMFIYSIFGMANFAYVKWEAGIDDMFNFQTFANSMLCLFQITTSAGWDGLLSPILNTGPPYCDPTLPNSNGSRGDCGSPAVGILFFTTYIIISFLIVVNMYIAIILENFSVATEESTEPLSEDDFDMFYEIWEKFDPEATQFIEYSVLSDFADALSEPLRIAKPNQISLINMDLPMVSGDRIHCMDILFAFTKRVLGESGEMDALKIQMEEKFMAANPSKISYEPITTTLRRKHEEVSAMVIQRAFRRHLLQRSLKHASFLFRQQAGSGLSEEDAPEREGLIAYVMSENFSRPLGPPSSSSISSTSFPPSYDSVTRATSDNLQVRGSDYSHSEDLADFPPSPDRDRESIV
UniProt Q14524, whole entry N1325S: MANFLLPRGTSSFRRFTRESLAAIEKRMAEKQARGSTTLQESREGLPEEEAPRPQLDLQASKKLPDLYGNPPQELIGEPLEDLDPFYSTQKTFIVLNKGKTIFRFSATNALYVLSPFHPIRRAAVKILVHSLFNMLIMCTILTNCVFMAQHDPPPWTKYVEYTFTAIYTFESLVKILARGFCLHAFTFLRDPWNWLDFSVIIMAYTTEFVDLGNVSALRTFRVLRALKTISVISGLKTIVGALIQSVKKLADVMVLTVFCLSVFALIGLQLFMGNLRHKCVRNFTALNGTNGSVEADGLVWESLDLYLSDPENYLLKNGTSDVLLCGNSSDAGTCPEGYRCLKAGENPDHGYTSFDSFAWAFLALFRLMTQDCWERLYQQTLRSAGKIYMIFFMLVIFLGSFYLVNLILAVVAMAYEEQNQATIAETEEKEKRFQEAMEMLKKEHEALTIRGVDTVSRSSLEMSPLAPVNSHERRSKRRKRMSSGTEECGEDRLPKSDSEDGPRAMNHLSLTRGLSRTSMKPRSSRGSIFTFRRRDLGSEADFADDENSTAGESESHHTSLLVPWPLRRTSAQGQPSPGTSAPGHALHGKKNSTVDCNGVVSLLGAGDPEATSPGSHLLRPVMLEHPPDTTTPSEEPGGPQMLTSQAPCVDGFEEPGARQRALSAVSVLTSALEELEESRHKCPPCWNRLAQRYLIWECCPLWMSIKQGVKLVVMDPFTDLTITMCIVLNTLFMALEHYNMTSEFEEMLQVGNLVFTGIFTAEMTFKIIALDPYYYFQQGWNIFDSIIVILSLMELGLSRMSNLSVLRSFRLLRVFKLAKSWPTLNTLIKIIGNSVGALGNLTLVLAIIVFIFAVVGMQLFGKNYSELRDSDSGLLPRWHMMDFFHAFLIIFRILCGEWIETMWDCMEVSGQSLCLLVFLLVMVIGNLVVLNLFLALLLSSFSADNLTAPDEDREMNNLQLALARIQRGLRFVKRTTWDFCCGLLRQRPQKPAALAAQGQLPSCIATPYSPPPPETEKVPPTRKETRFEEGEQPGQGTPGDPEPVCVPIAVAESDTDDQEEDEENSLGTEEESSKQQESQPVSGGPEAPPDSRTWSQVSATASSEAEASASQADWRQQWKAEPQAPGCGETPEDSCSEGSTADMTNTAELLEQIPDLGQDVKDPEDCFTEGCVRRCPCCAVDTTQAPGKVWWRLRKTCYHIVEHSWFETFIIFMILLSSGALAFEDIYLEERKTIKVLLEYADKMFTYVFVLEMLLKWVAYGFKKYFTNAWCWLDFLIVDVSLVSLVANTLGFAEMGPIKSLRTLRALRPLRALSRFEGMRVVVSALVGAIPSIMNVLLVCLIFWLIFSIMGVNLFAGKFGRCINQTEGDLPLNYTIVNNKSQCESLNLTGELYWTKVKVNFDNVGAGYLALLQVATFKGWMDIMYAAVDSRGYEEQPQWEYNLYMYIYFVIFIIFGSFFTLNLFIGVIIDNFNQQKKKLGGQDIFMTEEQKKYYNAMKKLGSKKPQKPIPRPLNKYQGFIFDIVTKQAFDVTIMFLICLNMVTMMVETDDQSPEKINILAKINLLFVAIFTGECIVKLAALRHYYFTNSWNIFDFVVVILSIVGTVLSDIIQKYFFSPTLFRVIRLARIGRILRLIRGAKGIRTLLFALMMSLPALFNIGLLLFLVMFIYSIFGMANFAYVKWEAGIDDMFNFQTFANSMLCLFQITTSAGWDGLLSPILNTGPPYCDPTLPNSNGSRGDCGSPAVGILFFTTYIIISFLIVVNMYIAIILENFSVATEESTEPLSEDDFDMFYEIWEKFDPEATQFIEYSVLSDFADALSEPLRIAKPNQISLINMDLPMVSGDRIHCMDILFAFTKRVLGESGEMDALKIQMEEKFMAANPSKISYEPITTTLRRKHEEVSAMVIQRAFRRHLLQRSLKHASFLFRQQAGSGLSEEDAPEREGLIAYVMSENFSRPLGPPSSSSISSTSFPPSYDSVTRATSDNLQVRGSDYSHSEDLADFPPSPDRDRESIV

The target in test [1] is T1, Nav1.5 (SCN5A) with beta-1 subunit (SCN1B) (Homo sapiens, UniProt Q14524, M1652R).
T1 construct: full-length SCN5A cDNA in pcDNA3.1 co-transfected with SCN1B cDNA (equal amounts) and GFP reporter plasmid in HEK293 cells; with Sodium channel regulatory subunit beta-1
From the text: (§1) whole-cell patch clamp, late INa inhibition on Nav1.5 (SCN5A) with beta-1 subunit (SCN1B)

Test [2] addresses T2, Nav1.5 (SCN5A) with beta-1 subunit (SCN1B) (Homo sapiens, UniProt Q14524, R1623Q).
T2 construct: full-length SCN5A cDNA in pcDNA3.1 co-transfected with SCN1B cDNA (equal amounts) and GFP reporter plasmid in HEK293 cells; with Sodium channel regulatory subunit beta-1
Description: as §1

Test [3] concerns the target T3, Nav1.5 (SCN5A) with beta-1 subunit (SCN1B) (Homo sapiens, UniProt Q14524, N1325S).
T3 construct: full-length SCN5A cDNA in pcDNA3.1 co-transfected with SCN1B cDNA (equal amounts) and GFP reporter plasmid in HEK293 cells; with Sodium channel regulatory subunit beta-1
Description: as §1

Usually IC50 stands for the concentration at which inhibition is half-maximal. Take `CC(C)NCC(O)COc1cccc2ccccc12` (stereo not drawn) [propranolol]: the results for the IC50 in test [1], in test [2] and in test [3] were 45 ± 5.69 µM, 23.1 ± 2.35 µM and 17.6 ± 1.81 µM, respectively.

The values are drawn from publication PMC7417866, “Gating Properties of Mutant Sodium Channels and Responses to Sodium Current Inhibitors Predict Mexiletine-Sensitive Mutations of Long QT Syndrome 3” (Frontiers in Pharmacology, 2020).
